The whole screen tested about 350,000 compounds, of which about 6,000 (1.7%) were called active. Inconclusive results, whose numbers are uncertain, are shown with a selection of clear calls. No stated cut-off is given here; in the data, active means CPE inhibition above about 20% (passing the limit was not always enough); inconclusive means no clear call, values can overlap the other calls; tested in BHK-21 cells.
Assay: protection of cells from dengue 2 killing – plate reader, single concentration, primary screen (AID 651640);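 further: 0% = median of neutral control wells and 100% = median of positive control wells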
Conditions: DENV2-infected cells, cytopathic effect rescue, at 9.99 µM, stronger effect = higher value

Structure (SMILES) | CPE inhibition
Cc1cccc(NC(=O)CCCN2C(=O)C(c3ccccc3)Oc3cccnc32)c1C (stereo unspecified) | inconclusive: 27.2%
Cc1nc2ccccc2n1CC(=O)NC1CCCCCC1 | inconclusive: 21.4%
CCCC#Cc1ccc2c(c1)O[C@@H](CN(C)C(=O)c1ccccc1F)[C@@H](C)CN([C@@H](C)CO)S2(=O)=O | inactive: -12.5%
CCCCCCCCN1C(=O)[C@H](CC(=O)NCc2cccc(C(F)(F)F)c2)C[C@@]2(C(=O)OC)CC(C)(C)CC=C12 | active: 43.9%
CO/N=C(\C(=O)N[C@@H]1C(=O)N2C(C(=O)O)=C(COC(C)=O)CS[C@H]12)c1csc(N)n1 (stereo in doubt) | inconclusive: 45.5%
CO[C@@H]1CN(C)C(=O)c2cc(NC(=O)CC(F)(F)F)ccc2OC[C@H](C)N(C(=O)C2CCOCC2)C[C@H]1C | inactive: -4.51%
O=C(c1cc(S(=O)(=O)N2CCOCC2)ccc1F)N(CCc1ccccc1)Cc1ccccc1 | inconclusive: 40.7%
O=C(O)Cn1ccc2ccccc21 | inconclusive: 30.6%
OC[C@H]1Nc2ccc(-c3cccc(F)c3)cc2[C@@H]2[C@H]1CCN2Cc1ccncc1 | inconclusive: 37.6%
COc1ccc(NS(=O)(=O)c2ccc3c(c2)NC(=O)CO3)c(OC)c1 | inconclusive: 22.8%
C/C(CC(=O)Nc1ccc(Cl)c(Cl)c1)=N\NC(=O)Cc1ccccc1 | active: 50.8%
O=C(c1ccc(F)cc1)C1CCN(C(=O)Nc2ccc(F)cc2F)CC1 | inconclusive: 36%
CC(C)C[C@H]1CN([C@@H](Cc2ccc(O)cc2)CN2CCC[C@H]2CN2C(=O)C(=O)NC[C@@H]2Cc2ccccc2)C(=O)C(=O)N1CC1CCCCCC1 | inconclusive: 50.8%
CC(=O)c1cccc(-c2ccnc3c2CC(C(=O)NCCC(F)(F)F)O3)c1 (stereo unspecified) | inconclusive: 30%
COc1ccc(CN(C)C[C@@H]2OCCCC[C@@H](C)Oc3ccc(NC(=O)CCC(F)(F)F)cc3C(=O)N([C@@H](C)CO)C[C@@H]2C)cc1 | inactive: -11.7%
O=C(c1cccnc1)N1CC(=O)N2[C@H](CO)[C@H](c3ccc(/C=C/c4ccccc4)cc3)[C@@H]2C1 | inconclusive: 33.3%
Cc1noc(C)c1NC(=O)Nc1ccc2c(c1)C(=O)N([C@@H](C)CO)C[C@@H](C)[C@@H](CN(C)C(=O)Nc1ccc3c(c1)OCO3)O2 | inactive: -5.92%
C[C@@H]1CN([C@@H](C)CO)C(=O)c2cc(N(C)C)ccc2O[C@@H](C)CCCCO[C@H]1CN(C)C(=O)CCC(F)(F)F | inconclusive: 38.3%
Cn1c(N)c(C(=O)COC(=O)/C=C/c2ccccc2)c(=O)n(C)c1=O | inconclusive: 29.5%
CSc1cccc(NC(=O)CCNC(=O)c2ccco2)c1 | inactive: 7.55%
Clc1ccccc1N1CCN(Cc2ccc(Br)o2)CC1 | inconclusive: 33%
C[C@@H]1CN([C@H](C)CO)C(=O)Cc2cc(NC(=O)c3ccncc3)ccc2O[C@H]1CN(C)C(=O)Nc1ccc(C(F)(F)F)cc1 | active: 22.8%
O=C(COC(=O)c1cc(S(=O)(=O)N2CCOCC2)ccc1O)NCc1ccc2c(c1)OCO2 | inactive: -11.5%
CCC1Nc2ncnc(N3CCN(c4ccccc4)CC3)c2N(Cc2ccc(Br)cc2)C1=O (stereo unspecified) | inconclusive: 71.3%

A few values from the results shown:
Value of `O=C(c1cc(S(=O)(=O)N2CCOCC2)ccc1F)N(CCc1ccccc1)Cc1ccccc1` under CPE inhibition: inconclusive: 40.7%
Value of `CC(C)C[C@H]1CN([C@@H](Cc2ccc(O)cc2)CN2CCC[C@H]2CN2C(=O)C(=O)NC[C@@H]2Cc2ccccc2)C(=O)C(=O)N1CC1CCCCCC1` under CPE inhibition: inconclusive: 50.8%

Next compounds follow:

Structure (SMILES) | CPE inhibition
O=C(C[C@H]1C[C@H]2c3cc(NC(=O)Nc4ccc(F)cc4)ccc3O[C@H]2[C@@H](CO)O1)NCC1CC1 | inconclusive: 24.5%
COc1ccc(S(=O)(=O)Nc2ccc3c(c2)C(=O)N([C@@H](C)CO)C[C@@H](C)[C@H](CN(C)S(=O)(=O)c2cccs2)OCCCC[C@H](C)O3)cc1 | active: 25.9%
CC1(C(=O)N2CCCCC2)CCN1C(=O)C1(c2ccccc2)CC1 (stereo unspecified) | inconclusive: 45.3%
Cc1cc(C)n2c(NC3CCCCC3)c(-c3ccccn3)nc2n1 | active: 29%
C[C@H]1CN([C@@H](C)CO)C(=O)c2cccc(NS(=O)(=O)c3cccs3)c2O[C@@H]1CN(C)C(=O)Nc1ccc(C(F)(F)F)cc1 | inactive: -1.61%
COc1ccc(CNC(=O)C2CCCN(C(=O)Nc3ccc(OC)cc3)C2)cc1 (stereo unspecified) | inconclusive: 28.3%
O=C(C[C@H]1CC[C@H]2[C@@H](COC[C@@H](O)CN2Cc2ccc(Oc3ccccc3)cc2)O1)Nc1nccs1 | inactive: 7.91%
CC(=O)Nc1cccc(-c2ccnc3c2CC(C)(C(=O)NCc2cccs2)O3)c1 (stereo unspecified) | inactive: 2.25%
Cc1ccc(S(=O)(=O)N[C@@H]2C=C[C@H](CC(=O)NCCc3ccncc3)O[C@H]2CO)cc1 | inactive: -0.351%
O=C(NCc1cccs1)c1ccc(CS(=O)Cc2ccc(Cl)cc2)o1 (stereo unspecified) | inconclusive: 23.8%
CCOC(=O)c1sc(NC(=O)CSC(=S)N2CCN(C)CC2)nc1C | inconclusive: 20.8%
CCC1CCCCN1C(=O)COC(=O)CN(C)S(=O)(=O)c1ccc(NC(C)=O)cc1 (stereo unspecified) | inconclusive: 27.6%
COc1ccc(CN(C)C[C@H]2OCCCC[C@@H](C)Oc3ccc(NC(=O)CCCN(C)C)cc3C(=O)N([C@@H](C)CO)C[C@@H]2C)cc1 | inactive: -4.44%
COc1cccc(NC(=O)NNC(=O)COc2ccc3ccccc3c2)c1 | inconclusive: 46.5%
CC(C)NC(=O)N(C)C[C@@H]1Oc2ncc(C#Cc3ccc(F)cc3)cc2C(=O)N([C@@H](C)CO)C[C@H]1C | active: 24.9%
O=C(Cc1ccc(Cl)cc1)NCCc1ccc(F)cc1 | inactive: -5.42%
CCCN1C[C@@H](C)[C@@H](OC)CN(C)C(=O)c2cc(NC(=O)Nc3ccccc3F)ccc2OC[C@H]1C | inactive: 6%
COc1cccc(-c2nc(CS(=O)(=O)CC(=O)NC3CCC(C)CC3)c(C)o2)c1 (stereo unspecified) | inconclusive: 27.9%
CCCc1cc(=O)[nH]c(NCCc2ccccc2)n1 | inactive: 2.56%
S=C(NCCc1ccc(Cl)cc1)NC1CCCCC1 | inconclusive: 96.5%
CC(Sc1nnc(N)s1)C(=O)Nc1ccc2c(c1)OCO2 (stereo unspecified) | inconclusive: 61.1%
COc1ccccc1C(=O)N1C[C@@H]2[C@H](c3ccccc31)[C@@H](CO)N2C(=O)C1CCCC1 | inactive: -5.09%
CCCNC(=O)[C@H]1[C@H](CO)[C@H]2Cn3c(ccc(-c4ccccc4)c3=O)[C@@H]1N2C(=O)C1CC1 | inactive: 9.4%
O=C1C2C=C(I)[C@H](C[C@@H]2OCCCCCCO)[C@@]12CO2 | inactive: -8.71%

Structure (SMILES) | CPE inhibition
O=S(=O)(c1ccccc1F)N1[C@@H]2CNC[C@H]1C2c1ccc(-c2cccc(F)c2)cc1 (stereo partly specified) | inconclusive: 25.9%
CN(C)c1ccc(C=c2c3cc([N+](=O)[O-])ccc3n3c2cc(-c2ccccc2)[n+]3C)cc1 | inconclusive: 21.9%
CCCNC(=O)C1(C)CCN(C(=O)Cc2ccc3ccccc3c2)C1 (stereo unspecified) | inconclusive: 33.5%
C[C@@H]1CN([C@H](C)CO)C(=O)CCCn2cc(nn2)CO[C@@H]1CN(C)S(=O)(=O)c1ccc(Cl)cc1 | inactive: 9.05%
CN(C)C(=O)[C@H]1[C@H](CO)[C@H]2Cn3c(ccc(-c4ccccc4)c3=O)[C@H]2N1Cc1ccccc1F | inactive: 6.95%
CCC(=O)N1[C@H](CO)[C@@H](c2ccccc2)C12CN(Cc1nccs1)C2 | active: 73.1%
Cc1ccc(S(=O)(=O)N(C)C[C@@H]2OCCCC[C@H](C)Oc3ccc(NS(=O)(=O)c4c(C)noc4C)cc3C(=O)N([C@H](C)CO)C[C@@H]2C)cc1 | active: 89.5%
C[C@@H]1CN([C@H](C)CO)C(=O)c2cccc(NS(=O)(=O)c3ccc(Cl)cc3)c2O[C@@H]1CN(C)Cc1ccc(Oc2ccccc2)cc1 | inconclusive: 24.3%
Cc1cc(C(=O)Nc2cccc3c2O[C@H](CN(C)C)[C@H](C)CN([C@H](C)CO)C3=O)n(C)n1 | inconclusive: 28.5%
Cc1cc(C(=O)Nc2cccc3c2O[C@H](CN(C)S(=O)(=O)c2cccs2)[C@@H](C)CN([C@@H](C)CO)C3=O)n(C)n1 | inconclusive: 26.9%
CSc1ccc(CCNC(=O)CN2C(=O)c3cccnc3Oc3ccc(C)cc32)cc1 | inconclusive: 25.5%
CC1CCN(C(=O)CN2c3cccc4cccc(c34)S2(=O)=O)CC1 | inconclusive: 20.7%
CCCN1C[C@@H](C)[C@@H](OC)CN(C)C(=O)c2cc(NC(=O)CC(F)(F)F)ccc2OC[C@@H]1C | active: 55.8%
CC(C)NC(=O)N1[C@H](C(=O)N2CCC(Cc3ccccc3)CC2)[C@@H](CO)[C@@H]2Cn3c(cccc3=O)[C@@H]21 | active: 26%
COc1cccc(N2CC(C(=O)Nc3nnc(SCCC4OCCO4)s3)CC2=O)c1 (stereo unspecified) | active: 93%
O=C(Nc1ccccc1F)c1cc2c(s1)-c1ccccc1S(=O)(=O)C2 | inactive: 3.7%
CN1CCN(C(=O)C[C@@H]2CC[C@@H]3[C@H](COC[C@@H](O)CN3C(=O)Cc3ccccc3)O2)CC1 | inactive: -2.75%
C[C@H](CO)N1C[C@H](C)[C@H](CN(C)C(=O)c2cnccn2)Oc2ncc(-c3cccc(F)c3)cc2C1=O | inactive: -7.38%
CC(OC(=O)CCCN=C1NS(=O)(=O)c2ccccc21)C(=O)c1ccccc1 (stereo unspecified) | inconclusive: 29%
COCC(C)NC(=O)COCc1cc(-c2ccc3c(c2)OCO3)on1 (stereo unspecified) | inconclusive: 21.5%
COC(=O)C1=C(C)N(C)C(=S)NC1c1cc(OC)ccc1OC (stereo unspecified) | inconclusive: 22.2%
CCCCCC(=O)Nc1ncc2c(n1)CC(c1cccs1)CC2=O (stereo unspecified) | inconclusive: 39.3%
COc1ccccc1CN1C[C@@H]2N[C@H](C1)C2c1ccc(-c2ccccc2OC)cc1 (stereo partly specified) | inconclusive: 20.3%

4 compounds picked at random from those above, as already listed:
Structure (SMILES) | CPE inhibition
CSc1cccc(NC(=O)CCNC(=O)c2ccco2)c1 | inactive: 7.55%
O=C(Nc1ccccc1F)c1cc2c(s1)-c1ccccc1S(=O)(=O)C2 | inactive: 3.7%
O=C(c1cccnc1)N1CC(=O)N2[C@H](CO)[C@H](c3ccc(/C=C/c4ccccc4)cc3)[C@@H]2C1 | inconclusive: 33.3%
Cn1c(N)c(C(=O)COC(=O)/C=C/c2ccccc2)c(=O)n(C)c1=O | inconclusive: 29.5%

Source: PubChem BioAssay AID651640 (Broad Institute, 2012)
